This assay deals with METL-9 (C. elegans (endogenous in C. elegans)) (UniProt Q22123). Description: affinity purification with mass spectrometry; METL-9 immunoprecipitation from C. elegans upon infection, followed by mass spectrometry.

Protein sequences, listed by entry. Tags and fused reporters are not part of them. Lines headed by an entry give the natural chain unless they say otherwise; changes in a name come on top.
UniProt Q22123: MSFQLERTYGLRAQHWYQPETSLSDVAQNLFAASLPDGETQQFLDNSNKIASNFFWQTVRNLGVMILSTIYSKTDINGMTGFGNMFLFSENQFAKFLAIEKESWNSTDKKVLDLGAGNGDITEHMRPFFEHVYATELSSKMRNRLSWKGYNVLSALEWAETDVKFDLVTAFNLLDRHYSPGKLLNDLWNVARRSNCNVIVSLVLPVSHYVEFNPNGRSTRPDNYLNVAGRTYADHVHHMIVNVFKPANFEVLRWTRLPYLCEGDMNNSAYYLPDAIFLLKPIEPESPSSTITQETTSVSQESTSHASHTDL

These are yes or no findings as the source states them, for the method shown. Binding seen in cells or lysates may run through a third protein. These calls come from enrichment with a bait or labelling near it, and not all partners need be listed.

Data on one molecule can be found in article PMC10397248, “A novel N^6-Deoxyadenine methyltransferase METL-9 modulates C. elegans immunity via dichotomous mechanisms” (Cell Research, 2023).

B1: DVE-1 (protein, UniProt Q86MI0 1-468)
chain: MFPMRVIVETVRSQHCLTCSNEGHMITDTYAIVAGTTTLNQLVETVLAALGHSSMSTSARGLIQVNNWKPLPFDQITENLDDTVENLFKDISSHVVLKILSKPSTDSNSVQCISEVKNKLLKAAVNKNPNVLTNVDNQQVKDVINTIIAGDETLLNSEQIGAVNEWLDTLETNEDRRSPTQVQRFNTLYEIPRLDKWFKSDANPSKQKMNNYLSQLNQSPFRKNNSKISYQQICNWFTQKRSSSRTLAPVDLVQVSSAQTAAQLLPGFQLNLLQSLFGEQRQKFDFYDKLDETKIVGGSDSPSPADDEIHSNSDETIQDTLFSINIKPEPEIDSIASSPDMANSMRESLSSTSPKLLSGLDLGAFSTHSSSTNSMQNANSSVFSAARSRLMFDPLTELPVLEKWFEENPHPTWMQIDQYTQCLNNCAYRENYPHISQHNVKIWFKNRRAKCKRLLNGMQEKLEQKVFV
B1: the binding result is “binds”.
